Measured values as given in patent publication US4865840A, “Topical compositions containing selenoamino acids for the prevention of ultraviolet radiation-induced skin damage” (priority 1987, dated 1989).

Experiment: hepatic protein after 39 weeks
Assay type: in vivo, BALBc mice

SMILES: C[Se]CC[C@H](N)C(=O)O [L-selenomethionine]
- protein (UV +, d.water, n = 20): 15.82 ± .41 mg/g
- protein (UV +, topical, n = 13): 15.45 ± .45 mg/g
- protein (UV -, d.water, n = 4): 16.29 ± .86 mg/g
- protein (UV -, topical, n = 4): 13.96 ± .87 mg/g
